PubChem BioAssay AID1224830 | NIAID – 2016
In all, the deposit lists about 18,000 reagents; shown is an unselected part. About 2,900 of them (16%) were called active. 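Calls are made per well; low scores hint the gene aids the LPS response, high scores that it dampens it.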 Repeated entries: four replicate wells of each siRNA pool.

Assay: 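Genes whose knock-down alters the TNF-alpha reporter response to LPS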 (primary screen)
System: human THP-1 monocytic leukaemia cells, TNF dual-luciferase reporter clone, PMA-differentiated to macrophage-like cells
Reagent: siRNA pool against human genes, 50 nM
Duration: LPS for 4 h, given about 3 days after siRNA transfection
Conditions: bacterial LPS (TLR4 ligand), 10 ng/ml
Read-out: 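Ratio of firefly to renilla light, scaled to the plate median and expressed as a robust z-score per replicate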
Reading the numbers: TNF reporter robust z-score: higher = stronger TNF reporter response to LPS
Hit rule: 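Each well counts as active if its z-score is over 2.8 or under -1.5; controls are left without a call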

Target gene,PubChem SID,TNF reporter robust z-score,Outcome
SKOR2,SID315465134,-0.53,inactive
SKOR2,SID315465134,-0.64,inactive
SKOR2,SID315465134,-0.35,inactive
SKOR2,SID315465134,1.09,inactive
BATF2,SID315461342,3.35,active
BATF2,SID315461342,4.73,active
BATF2,SID315461342,4.44,active
BATF2,SID315461342,4.77,active
TTPA,SID315452005,0.99,inactive
TTPA,SID315452005,0.89,inactive
TTPA,SID315452005,-0.19,inactive
TTPA,SID315452005,2.71,inactive
DENND5B,SID315462705,0.11,inactive
DENND5B,SID315462705,0.15,inactive
DENND5B,SID315462705,0.2,inactive
DENND5B,SID315462705,0.35,inactive
TOMM70,SID315453632,-0.56,inactive
TOMM70,SID315453632,0.22,inactive
TOMM70,SID315453632,0.35,inactive
TOMM70,SID315453632,1.22,inactive
SLC30A9,SID315454109,-0.65,inactive
SLC30A9,SID315454109,-0.05,inactive
SLC30A9,SID315454109,-0.88,inactive
SLC30A9,SID315454109,-0.76,inactive
CHPF2,SID315457031,0.62,inactive
CHPF2,SID315457031,0.39,inactive
CHPF2,SID315457031,1.29,inactive
CHPF2,SID315457031,0.49,inactive
NUDT17,SID315463020,-1.31,inactive
NUDT17,SID315463020,-1.71,active
NUDT17,SID315463020,-1.62,active
NUDT17,SID315463020,0.03,inactive
GNA12,SID315448937,-0.77,inactive
GNA12,SID315448937,-0.38,inactive
GNA12,SID315448937,-0.05,inactive
GNA12,SID315448937,-0.21,inactive
DGKZ,SID315452625,-1.48,inactive
DGKZ,SID315452625,0.52,inactive
DGKZ,SID315452625,-1.61,active
DGKZ,SID315452625,-1.19,inactive

Reagents above called active, once more:
Target gene,PubChem SID,TNF reporter robust z-score,Outcome
BATF2,SID315461342,3.35,active
BATF2,SID315461342,4.73,active
BATF2,SID315461342,4.44,active
BATF2,SID315461342,4.77,active
NUDT17,SID315463020,-1.71,active
NUDT17,SID315463020,-1.62,active
DGKZ,SID315452625,-1.61,active

More entries:
Target gene,PubChem SID,TNF reporter robust z-score,Outcome
PHF11,SID315456498,-1.12,inactive
PHF11,SID315456498,-0.35,inactive
PHF11,SID315456498,-0.77,inactive
PHF11,SID315456498,0.99,inactive
FBXO24,SID315455743,0.29,inactive
FBXO24,SID315455743,-1.93,active
FBXO24,SID315455743,1.1,inactive
FBXO24,SID315455743,3.02,active
OTUD6B,SID315456816,0.59,inactive
OTUD6B,SID315456816,-0.08,inactive
OTUD6B,SID315456816,-0.63,inactive
OTUD6B,SID315456816,-0.75,inactive
VIPR1,SID315452119,-1.73,active
VIPR1,SID315452119,-1.45,inactive
VIPR1,SID315452119,-0.84,inactive
VIPR1,SID315452119,-0.62,inactive
RXFP3,SID315456614,-0.04,inactive
RXFP3,SID315456614,-0.8,inactive
RXFP3,SID315456614,0.63,inactive
RXFP3,SID315456614,-0.39,inactive
ATP4A,SID315447463,-1.44,inactive
ATP4A,SID315447463,0.07,inactive
ATP4A,SID315447463,-0.34,inactive
ATP4A,SID315447463,-0.64,inactive
CFAP58,SID315462691,-0.88,inactive
CFAP58,SID315462691,-0.73,inactive
CFAP58,SID315462691,0.21,inactive
CFAP58,SID315462691,-0.62,inactive
CEP20,SID315461590,-1.36,inactive
CEP20,SID315461590,-1.96,active
CEP20,SID315461590,-1.59,active
CEP20,SID315461590,-1.14,inactive
ABHD12B,SID315462244,0.16,inactive
ABHD12B,SID315462244,1.34,inactive
ABHD12B,SID315462244,0.6,inactive
ABHD12B,SID315462244,0.87,inactive
